Assay results as given in publication PMC7862700.
This is a selection; strong and weak results do not stand in their true shares. At the low end of the ranking the order means little.

Legend:
Experiment in all cases: DAPPL (digital affinity profiling via proximity ligation, sequencing)
Details in all cases: 10 mM Tris-HCl pH 7.5, 50 mM NaCl, 1 mM DTT, 4% glycerol, room temperature, 30 min; GST-TFs on glutathione beads, 16-mer random dsDNA library, 0.1% …; high values mean tight binding; double strand, one strand shown; scale: fold enrichment (6-mer frequency, TF over GST control)
[1] = target: T1, ELK1 (UniProt P19419)
T1 sequence: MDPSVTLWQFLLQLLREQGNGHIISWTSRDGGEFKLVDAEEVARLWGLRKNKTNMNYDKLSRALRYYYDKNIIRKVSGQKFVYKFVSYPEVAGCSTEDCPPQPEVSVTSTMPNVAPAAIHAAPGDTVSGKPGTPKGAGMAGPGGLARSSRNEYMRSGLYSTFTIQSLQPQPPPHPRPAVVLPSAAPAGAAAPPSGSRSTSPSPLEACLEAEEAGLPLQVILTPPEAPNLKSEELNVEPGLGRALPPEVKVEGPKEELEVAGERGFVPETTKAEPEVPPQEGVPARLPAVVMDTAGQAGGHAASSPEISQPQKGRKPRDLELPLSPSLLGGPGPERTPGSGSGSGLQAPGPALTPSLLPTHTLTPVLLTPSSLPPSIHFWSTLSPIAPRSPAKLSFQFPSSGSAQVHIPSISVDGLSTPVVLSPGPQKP

[2] = target: T2, ETS2 (UniProt P15036)
T2 sequence: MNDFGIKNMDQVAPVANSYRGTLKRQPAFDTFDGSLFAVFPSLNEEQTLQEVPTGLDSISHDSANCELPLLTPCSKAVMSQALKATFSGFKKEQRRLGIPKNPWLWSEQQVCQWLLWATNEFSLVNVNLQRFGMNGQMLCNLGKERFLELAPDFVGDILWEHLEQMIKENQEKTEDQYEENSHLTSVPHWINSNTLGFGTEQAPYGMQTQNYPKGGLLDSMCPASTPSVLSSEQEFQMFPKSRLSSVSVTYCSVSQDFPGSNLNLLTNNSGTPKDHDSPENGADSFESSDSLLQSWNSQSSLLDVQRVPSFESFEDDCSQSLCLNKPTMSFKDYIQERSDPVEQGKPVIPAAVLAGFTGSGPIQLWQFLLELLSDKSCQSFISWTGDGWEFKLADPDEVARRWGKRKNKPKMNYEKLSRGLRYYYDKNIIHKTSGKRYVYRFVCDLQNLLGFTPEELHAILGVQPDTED

[3] = target: T3, ETV3 (UniProt P41162-2)
T3 sequence: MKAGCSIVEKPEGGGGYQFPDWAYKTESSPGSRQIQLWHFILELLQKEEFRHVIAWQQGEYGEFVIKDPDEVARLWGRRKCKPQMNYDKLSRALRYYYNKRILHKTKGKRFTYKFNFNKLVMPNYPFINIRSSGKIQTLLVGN

[4] = target: T4, ELK3 (UniProt P41970)
T4 sequence: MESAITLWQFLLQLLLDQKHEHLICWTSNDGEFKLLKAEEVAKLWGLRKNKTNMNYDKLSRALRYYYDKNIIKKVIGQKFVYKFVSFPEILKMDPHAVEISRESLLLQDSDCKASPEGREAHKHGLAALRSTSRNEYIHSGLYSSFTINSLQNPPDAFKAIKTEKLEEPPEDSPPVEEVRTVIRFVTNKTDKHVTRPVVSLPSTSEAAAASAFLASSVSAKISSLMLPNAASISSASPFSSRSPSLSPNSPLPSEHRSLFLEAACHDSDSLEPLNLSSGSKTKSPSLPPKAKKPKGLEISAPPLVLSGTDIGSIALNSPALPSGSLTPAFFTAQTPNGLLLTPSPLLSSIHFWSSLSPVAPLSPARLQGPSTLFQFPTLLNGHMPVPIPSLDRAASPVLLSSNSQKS

Sequence	binding signal [1]	binding signal [2]	binding signal [3]	binding signal [4]
GCACTC	1.5	1.23	1.28	–
CCAGCA	0.9	0.94	0.845	–
GCAATG	1.08	0.961	1.03	–
GCCATC	0.963	0.942	0.962	0.888
AGTAAC	0.984	0.965	1.09	–
GTGTAC	0.976	0.867	0.916	–
TATGAC	1.34	1.31	1.2	–
ACATAG	0.956	1.05	0.989	–
GTCCGC	0.967	0.99	1.03	–
GCGCGT	0.834	0.809	0.836	0.74
CTCAGT	1.21	1.1	1.24	–
GCTGAC	1.1	1.11	1.17	–
GTGGCC	0.987	1.01	0.967	–
CACTGA	0.96	1.04	0.985	–
CCACGT	0.945	0.927	0.964	–
GTCACG	0.984	0.959	0.95	–
TTAGCC	0.927	0.975	0.979	–
TGATAG	1.07	1.06	1.05	–
CTAGCC	0.943	0.981	0.955	–
AATTGA	1.19	1.26	1.17	–
GTGATG	0.935	0.885	0.886	0.906
CTGGCG	0.818	0.769	0.812	0.845

Sequence	binding signal [1]	binding signal [2]	binding signal [3]	binding signal [4]
CTGTAG	0.997	0.891	0.996	0.874
TAGGAT	0.958	1.03	0.982	–
AGAAGT	0.987	0.973	1.01	–
GTGCCG	0.874	0.836	0.918	0.956
AGCACG	0.89	0.932	0.892	0.823
GTTGTC	0.844	0.881	0.832	0.707
ATTCTC	1.27	1.19	1.17	–
ACGCTC	0.96	0.971	0.974	0.918
AGTTAC	0.907	0.966	0.937	–
TAAGGC	0.96	0.903	0.933	0.921
TCGTTA	0.96	0.977	0.935	0.951
GTTGGC	0.904	0.737	0.89	0.84
GTAGTT	0.922	1.02	0.981	0.992
AAAGGC	0.942	1	0.951	0.941
GATTTA	0.888	1	0.997	1.08
TGTAGA	0.937	0.879	0.928	0.929
TCGAAG	0.888	0.988	0.854	0.914
TGTCAG	0.95	0.897	0.922	0.861
TACGGT	0.976	0.953	0.879	1.11
ACGCCA	0.845	0.884	0.94	0.828
GATAGT	0.759	0.8	0.864	0.874
AGGCAC	0.826	0.88	0.905	0.821

Full records, quoted from the list.
GTGGCC in the list: binding signal [1] = 0.987; binding signal [2] = 1.01; binding signal [3] = 0.967
TTAGCC in the list: binding signal [1] = 0.927; binding signal [2] = 0.975; binding signal [3] = 0.979
